Measured data: PubChem BioAssay AID1508597 (Cure First, 2020)
In all, the deposit lists about 2,100 reagents; below is a random part of them. 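Calls flag viability under 80% in either arm, not effects specific to rucaparib; the reference for percent is not stated.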 A reagent listed more than once was tested more than once; the source does not tell the runs apart. Not given: the 100% reference.

Aim: 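Genes whose silencing sensitises or protects ovarian cancer cells against rucaparib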 (primary screen)
System: human ovarian carcinoma lines grown from tumours: OCI-P5x (papillary serous) and OCI-C5x (clear cell)
Reagent: siRNA pool against human genes, 1.25 pmol siRNA per well
Timing: 72 h or 96 h, depending on the cell culture
Treatment: rucaparib 20 µM (about IC30) or vehicle, present until read-out
Measurement: 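Luminescent ATP-based viability assay read 72 or 96 h after transfection, depending on culture, given as normalised percent viability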
Reading the numbers: viability, normalised: higher = more viable cells remaining
Call rule: 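a well counts as a hit if its normalised viability is under 80 percent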
Meaning of the calls: active = viability under 80%; inactive = viability 80% or more

Target gene	rucaparib or vehicle	cell line	technical replicate	viability, normalised (%)	Outcome
EP300	Rucaparib	OCI-C5x (clear cell)	1	27.1	active
EP300	Rucaparib	OCI-C5x (clear cell)	1	68	active
EP300	Rucaparib	OCI-C5x (clear cell)	2	80.4	inactive
EP300	Rucaparib	OCI-C5x (clear cell)	2	20.6	active
EP300	Rucaparib	OCI-C5x (clear cell)	3	30.2	active
EP300	Rucaparib	OCI-C5x (clear cell)	3	45.3	active
EP300	Rucaparib	OCI-P5x (serous)	1	57.5	active
EP300	Rucaparib	OCI-P5x (serous)	1	72.9	active
EP300	Rucaparib	OCI-P5x (serous)	2	67.6	active
EP300	Rucaparib	OCI-P5x (serous)	2	78.3	active
EP300	Rucaparib	OCI-P5x (serous)	3	70	active
EP300	Rucaparib	OCI-P5x (serous)	3	84.4	inactive
EP300	Vehicle	OCI-C5x (clear cell)	1	34.5	active
EP300	Vehicle	OCI-C5x (clear cell)	1	31.7	active
EP300	Vehicle	OCI-C5x (clear cell)	2	49.3	active
EP300	Vehicle	OCI-C5x (clear cell)	2	35.9	active
EP300	Vehicle	OCI-C5x (clear cell)	3	29.5	active
EP300	Vehicle	OCI-C5x (clear cell)	3	52	active
EP300	Vehicle	OCI-P5x (serous)	1	87.5	inactive
EP300	Vehicle	OCI-P5x (serous)	1	58.5	active
EP300	Vehicle	OCI-P5x (serous)	2	63.7	active
EP300	Vehicle	OCI-P5x (serous)	2	91.3	inactive
EP300	Vehicle	OCI-P5x (serous)	3	70.5	active
EP300	Vehicle	OCI-P5x (serous)	3	65	active

Continued, starting with the last 7 of the part before.
Target gene	rucaparib or vehicle	cell line	technical replicate	viability, normalised (%)	Outcome
EP300	Vehicle	OCI-C5x (clear cell)	3	52	active
EP300	Vehicle	OCI-P5x (serous)	1	87.5	inactive
EP300	Vehicle	OCI-P5x (serous)	1	58.5	active
EP300	Vehicle	OCI-P5x (serous)	2	63.7	active
EP300	Vehicle	OCI-P5x (serous)	2	91.3	inactive
EP300	Vehicle	OCI-P5x (serous)	3	70.5	active
EP300	Vehicle	OCI-P5x (serous)	3	65	active
ARID1B	Rucaparib	OCI-C5x (clear cell)	1	62.4	active
ARID1B	Rucaparib	OCI-C5x (clear cell)	2	61.3	active
ARID1B	Rucaparib	OCI-C5x (clear cell)	3	53.2	active
ARID1B	Rucaparib	OCI-P5x (serous)	1	83.9	inactive
ARID1B	Rucaparib	OCI-P5x (serous)	2	80.4	inactive
ARID1B	Rucaparib	OCI-P5x (serous)	3	70.9	active
ARID1B	Vehicle	OCI-C5x (clear cell)	1	47.3	active
ARID1B	Vehicle	OCI-C5x (clear cell)	2	53.1	active
ARID1B	Vehicle	OCI-C5x (clear cell)	3	44.4	active
ARID1B	Vehicle	OCI-P5x (serous)	1	71.9	active
ARID1B	Vehicle	OCI-P5x (serous)	2	71.2	active
ARID1B	Vehicle	OCI-P5x (serous)	3	70.3	active
ELAC1	Rucaparib	OCI-C5x (clear cell)	1	60.2	active
ELAC1	Rucaparib	OCI-C5x (clear cell)	2	59.2	active
ELAC1	Rucaparib	OCI-C5x (clear cell)	3	46	active
ELAC1	Rucaparib	OCI-P5x (serous)	1	45	active
ELAC1	Rucaparib	OCI-P5x (serous)	2	41.4	active
ELAC1	Rucaparib	OCI-P5x (serous)	3	49.1	active
ELAC1	Vehicle	OCI-C5x (clear cell)	1	55.1	active
ELAC1	Vehicle	OCI-C5x (clear cell)	2	46.8	active
ELAC1	Vehicle	OCI-C5x (clear cell)	3	44	active
ELAC1	Vehicle	OCI-P5x (serous)	1	87.5	inactive
ELAC1	Vehicle	OCI-P5x (serous)	2	69.1	active
ELAC1	Vehicle	OCI-P5x (serous)	3	84.1	inactive
GALK1	Rucaparib	OCI-C5x (clear cell)	1	48.8	active
GALK1	Rucaparib	OCI-C5x (clear cell)	2	59.2	active
GALK1	Rucaparib	OCI-C5x (clear cell)	3	51.7	active
GALK1	Rucaparib	OCI-P5x (serous)	1	76.4	active
GALK1	Rucaparib	OCI-P5x (serous)	2	77.5	active
GALK1	Rucaparib	OCI-P5x (serous)	3	70.2	active
GALK1	Vehicle	OCI-C5x (clear cell)	1	50.6	active
GALK1	Vehicle	OCI-C5x (clear cell)	2	59.4	active
GALK1	Vehicle	OCI-C5x (clear cell)	3	56.7	active
GALK1	Vehicle	OCI-P5x (serous)	1	63.4	active
GALK1	Vehicle	OCI-P5x (serous)	2	65.3	active
GALK1	Vehicle	OCI-P5x (serous)	3	76	active
